US9669106 (dated 2017)

Experiment: general procedure: solution-phase peptide synthesis; DEPC/DIEA; HATU/DIEA
Conditions: trifluoroacetic acid

Substance	step yield (coupling step) [%]	final HPLC purity (late stage modification step, 220 nm) [%]	step yield (late stage modification step) [%]
9H-fluoren-9-ylmethyl N-[(1S)-1-[[(3R,4S,5S)-3-methoxy-1-[(2S)-2-[(1R,2R)-1-methoxy-2-methyl-2-[[(1 S)-2-phenyl-1-(1,3-thiazol-2-yl)ethyl]carbamoyl]ethyl]pyrrolidin-1-yl]-5-methyl-1-oxoheptan-4-yl](methyl) carbamoyl]-2-methylpropyl]carbamate	71		
((2R,3R)-3-((S)-1-((3R,4S,5S)-4-((S)-2-((S)-2-((4-aminophenethyl)(methyl)amino)-3-methylbutanamido)-N,3-dimethylbutanamido)-3-methoxy-5-methylheptanoyl)pyrrolidin-2-yl)-3-methoxy-2-methylpropanoyl)-L-phenylalanine 2,2,2-trifluoroacetate		100	66
Methyl ((2R,3R)-3-((S)-1-((3R,4S,5S)-4-((S)-2-((S)-2-((4-aminophenethyl)(methyl)amino)-3-methylbutanamido)-N,3-dimethylbutanamido)-3-methoxy-5-methylheptanoyl)pyrrolidin-2-yl)-3-methoxy-2-methylpropanoyl)-L-phenylalaninate	45		
